Data source: PubChem BioAssay AID1259331 (Drosophila RNAi Screening Center, 2017)
Assay: 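Genes whose knock-down changes cell survival under toxic zinc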 (primary screen). Cells: Drosophila S2R+ cells. Knock-down reagent: long dsRNA against Drosophila genes. Time to read-out: 5 days (4 days knock-down, then 1 day zinc). Challenge: zinc chloride at 15 mM final level for 1 day. Measured: 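Total cellular ATP measured by luciferase luminescence as a viability proxy, turned into Z scores from three plate copies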. Direction: mean Z score: higher = more ATP than other wells, better survival under zinc; ATP luminescence: higher = more ATP, more viable cells. Call rule: 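Hit when the absolute Z score is greater than 1.5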. Meaning of the calls: active = hit, ATP up or down; inactive = not a hit.
In all, the deposit lists about 3,100 reagents; this is a part drawn at random. 126 of them (4.1%) count as active. 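Calls are per reagent; zinc was so toxic that few knock-downs lowered ATP further, so most hits raise ATP.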 Raw values are not corrected between plates. Unmarked entries are inactive. Names joined by + are all predicted targets of the reagent. Reagent sequences are not shown. Not given: the amount of reagent.

gene knocked down | dsRNA | mean Z score | ATP luminescence, replicate 1 | ATP luminescence, replicate 2
NaCP60E (Na channel protein 60E) | DRSC04307 | -0.133 | 35805 | 27079
NaCP60E (Na channel protein 60E) | DRSC26120 | -0.322 | 46194 | 50086
CG8916 | DRSC20120 | 0.0541 | 65880 | 68035
CG8916 | DRSC39685 | -0.302 | 57339 | 53601
Nup50 (Nucleoporin 50kD) | DRSC06827 | -0.043 | 32222 | 31553
Nup50 (Nucleoporin 50kD) | DRSC26470 | 0.895 | 79019 | 66372
CG34234 + Dh44-R2 | DRSC07278 | -0.475 | 26291 | 27610
CR12628 + Mgstl | DRSC03702 | -0.0617 | 67029 | 62981
CR12628 + Mgstl | DRSC20568 | 0.836 | 44738 | 39936
Drl-2 (Derailed 2) | DRSC06155 | 0.124 | 43039 | 44822
Drl-2 (Derailed 2) | DRSC06858 | -0.216 | 68624 | 65298
Drl-2 (Derailed 2) | DRSC36862 | -0.099 | 46262 | 45345
Drl-2 (Derailed 2) | DRSC36863 | 0.268 | 48808 | 55539
nAChRalpha6 (nicotinic Acetylcholine Receptor alpha6) | DRSC01096 | 0.0948 | 41448 | 46869
nAChRalpha6 (nicotinic Acetylcholine Receptor alpha6) | DRSC02738 | -0.257 | 48566 | 56859
Tehao | DRSC03449 | -0.335 | 47686 | 44445
Tehao | DRSC39803 | -0.101 | 50309 | 59569

Ordered by “mean Z score” (lowest first): some entries from above.
gene knocked down | dsRNA | mean Z score | ATP luminescence, replicate 1 | ATP luminescence, replicate 2
Drl-2 (Derailed 2) | DRSC36862 | -0.099 | 46262 | 45345
nAChRalpha6 (nicotinic Acetylcholine Receptor alpha6) | DRSC01096 | 0.0948 | 41448 | 46869
Drl-2 (Derailed 2) | DRSC36863 | 0.268 | 48808 | 55539

The list goes on:
gene knocked down | dsRNA | mean Z score | ATP luminescence, replicate 1 | ATP luminescence, replicate 2
Tmhs (Tetraspan membrane protein in hair cell stereocilia) | DRSC08231 | -0.771 | 24114 | 24773
CG6938 | DRSC10752 | -0.206 | 70905 | 57477
CG6938 | DRSC28621 | 0.292 | 59183 | 72730
Balat + asRNA:CR43469 | DRSC06852 | -1.65 (active) | 18990 | 17068
Balat + asRNA:CR43469 | DRSC39492 | -0.212 | 41942 | 53738
Cad87A (Cadherin 87A) | DRSC16161 | 0.847 | 53584 | 56328
Cad87A (Cadherin 87A) | DRSC29158 | -0.00768 | 59329 | 63256
CG7084 | DRSC16194 | 0.64 | 49795 | 55110
CG7084 | DRSC39839 | -0.253 | 49949 | 55505
kon (kon-tiki) | DRSC02033 | -0.195 | 50748 | 56345
kon (kon-tiki) | DRSC39622 | -0.153 | 62381 | 56256
